Test results as given in article doi:10.1101/2021.04.26.441214 (bioRxiv, 2021).
Results are given in words; binding and its absence hold for the method and conditions named. A result given as binding can be weak or reduced; the word gives no strength. For some assays here: In cells and extracts the contact can be indirect.

Key:
[1] = target: T. maritima encapsulin shell protein (wild type) (T. maritima); experiment: cryo-EM structure
[2] = target: T. maritima encapsulin shell protein W90E (T. maritima); experiment: co-purification

B1: T. maritima ferritin-like protein (FLP) cargo (natural protein, UniProt Q9WZP3 1-114, looked up)
chain: MADQYHEPVSELTGKDRDFVRALNSLKEEIEAVAWYHQRVVTTKDETVRKILEHNRDEEMEHAAMLLEWLRRNMPGWDEALRTYLFTDKPITEIEEETSGGSENTGGDLGIRKL
- binding [1]: binds
- binding [2]: binds
